Where “and” joins values, the source holds several entries; their conditions need not be identical. Equal values may be shown once. Where a name gives a salt, the structure may show the parent alone. This is one part of the list. Single values are uncertain, as repeats are few or missing.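 The assay uses human stem cell-derived hepatocyte-like cells whose DGUOK gene was disrupted by CRISPR, modeling liver mtDNA depletion syndrome. ATP signals were scored within each plate, and any drug with a score of at least 3 was called a primary hit.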 Starred links: 1 amine or outer side, 2 acyl side, 3 side chain; linkers in the order of their positions; H or OH if unused. Non-standard residues stand in square brackets, D forms with d. Residues, ends and D or L forms follow the SMILES beside them. ξ: configuration not given here. *: point of attachment. X3 = O=C([C@H](N[*:1])C1CCC(O)CC1)[*:2]; X5 = O=C(C(N[*:1])C1CCC(O)C(Cl)C1)[*:2]; X4 = O=C(C(N[*:1])C1CCC(O)CC1)[*:2]; aThr = C[C@H](O)[C@H](N)C(=O)O; dOrn = NCCC[C@@H](N)C(=O)O; X2 = CCC/C=C\C=C/C(=O)*; ξN = NC(=O)CC(N)C(=O)O

For this assay, the system named is DGUOK Δ14/Δ5 iPSC-derived hepatocyte-like cells (SV20). In words: ATP level (CellTiter-Glo luminescence) Z score relative to plate distribution, under 2-DG glycolysis block; higher = more cellular ATP (rescue of mitochondrial ATP production). Conditions: 5 µM; treatment time: day 15 to day 20 of differentiation (5 days); 2-deoxy-D-glucose: 20 mM for 24 h before assay. A general note: In ATP-based viability assays light output follows the ATP content of the culture.
Turning to `Nc1nc2[nH]cnc2c(=S)[nH]1`, the ATP level is inactive: -1.78 and inactive: -13.3.
In the case of `Cc1c(OCC(F)(F)F)ccnc1C[S@@+]([O-])c1nc2ccccc2[nH]1`, the ATP level was inactive: 0.0214.
Next, `O=c1ccc2cc(O)c(O)cc2o1`: active: 6.03; `C[C@H](CCC(=O)O)[C@H]1CC[C@H]2[C@@H]3[C@H](O)C[C@@H]4C[C@H](O)CC[C@]4(C)[C@H]3C[C@H](O)[C@]12C`: active: 4.14; `CC(=O)OC1CCC2(C)C(=CCC3C2CCC2(C)C(C(C)CCCC(C)C)CCC32)C1` (centres undefined): inactive: 1.45.
Under `CC(C)=CCC[C@@H](C)[C@H]1CC[C@@]2(C)C3=C(CC[C@]12C)[C@@]1(C)CC[C@H](O)C(C)(C)[C@@H]1CC3` stands inactive: 0.327; under `O=C(OCC(O)CO)c1ccccc1Nc1ccnc2cc(Cl)ccc12` (centres undefined), inactive: 0.503; under `CC(C(=O)O)c1ccc(-c2ccccc2)c(F)c1` (centres undefined), inactive: 1.32.
Turning to `Cc1cc(O)c2c(c1)C(=O)c1cccc(O)c1C2=O`, the ATP level is inactive: 1.98.
Turning to `COc1cc2c(N3CCN(C(=O)Nc4ccc(OC(C)C)cc4)CC3)ncnc2cc1OCCCN1CCCCC1`, the ATP level is inactive: -4.46.
Under `C[C@H]1O[C@@H](O[C@H]2[C@@H](O)C[C@H](O[C@H]3[C@@H](O)C[C@H](O[C@H]4CC[C@@]5(C)[C@H](CC[C@@H]6[C@@H]5C[C@@H](O)[C@]5(C)[C@@H](C7=CC(=O)OC7)CC[C@]65O)C4)O[C@@H]3C)O[C@@H]2C)C[C@H](O)[C@@H]1O` stands inactive: -26.5; under `NS(=O)(=O)c1cc2c(cc1Cl)NC(C(Cl)Cl)NS2(=O)=O` (centres undefined), inactive: -0.613.
Next, `CN[C@@H]1[C@H](O)[C@H](NC)[C@H]2O[C@@]3(O)C(=O)C[C@@H](C)O[C@H]3O[C@@H]2[C@H]1O`: inactive: -0.204; `CN[C@H](CC(=O)O)C(=O)O`: inactive: -0.794; `CC(=O)N[C@@H](C=O)[C@@H](O[C@H](C)C(=O)O)[C@H](O)[C@H](O)CO`: inactive: 1.21.
Next, `CC(C)=CCC[C@@H](C)CC=O`: inactive: -0.178; `Cc1onc(-c2ccccc2Cl)c1C(=O)N[C@@H]1C(=O)N2[C@@H]1SC(C)(C)[C@@H]2C(=O)O`: inactive: 1.16.
Regarding `CC12CCC(CC1=O)C2(C)C` (centres undefined), the ATP level was inactive: 0.238.
Under `CN[C@@H]1[C@@H](O[C@H]2O[C@H](CO)[C@@H](N)[C@H](O)[C@H]2O)OC2C[C@@H](N)[C@@H](O[C@H]3[C@H](O)[C@@H](O)[C@H](N)C[C@@H]3N)OC2[C@@H]1O` (some centres undefined) stands inactive: 0.683.
As for `CC1(C)O[C@H]2CC(=O)OC[C@]23[C@H]2CC[C@@]4(C)[C@H](c5ccoc5)OC(=O)[C@H]5O[C@]54[C@]2(C)C(=O)C[C@@H]13`, the ATP level is inactive: -0.239.
Next, `CC(=O)Oc1cc(OC(C)=O)c2c(c1)O[C@H](c1ccc(OC(C)=O)c(OC(C)=O)c1)[C@@H](OC(C)=O)C2`: inactive: 1.8; `CC(C)CCC[C@@H](C)[C@H]1CC[C@H]2[C@@H]3CC(=O)[C@H]4C[C@@H](O)CC[C@]4(C)[C@H]3CC[C@]12C` [5alpha-CHOLESTAN-3beta-OL-6-ONE]: inactive: -0.705.
Next, `CCCCCCOC(=O)NC(=N)c1ccc(NCc2nc3cc(C(=O)N(CCC(=O)OCC)c4ccccn4)ccc3n2C)cc1`: inactive: -1.61.
Next, `NCCCC(=O)O` [gamma-AMINOBUTYRIC ACID HYDROCHLORIDE]: inactive: 0.687; `CCCCCCCCCCCCCCCCCCCCCCO`: inactive: 1.15.
Regarding `CC(=O)NC(Cc1ccccc1)C(=O)O` (centres undefined), the ATP level was inactive: 0.76.
Regarding `COc1ccc(O)cc1`, the ATP level is inactive: -2.58.
Consider `CCN(CC)CCNC(=O)c1cc(Cl)c(N)cc1OC`, for which the ATP level was inactive: -3.02.
Next, `NCCCNCCCCNCCCN`: inactive: 1.43.
With `COc1ccc(-c2oc3cc(OC)c(OC)c(OC)c3c(=O)c2OC)cc1`, the ATP level is inactive: -1.27.
On to `CC(C)(CO)C(O)C(=O)NCCCO` (centres undefined), for which the ATP level was inactive: -2.44.
Under `CCOc1ccc2ccccc2c1C(=O)N[C@@H]1C(=O)N2[C@@H]1SC(C)(C)[C@@H]2C(=O)O` stands inactive: 0.132.
With `Cn1cnc2c1c(=O)[nH]c(=O)n2C`, the ATP level is inactive: 1.5.
With `CC1=NN(c2ccccc2)C(=O)C1`, the ATP level is inactive: -0.537.
Under `C[n+]1c2cc(N)ccc2cc2ccc(N)cc21` stands inactive: -21.2; under `COc1ccc(-c2coc3cc(OC)ccc3c2=O)cc1`, inactive: 0.167; under `O=C(O)CCNC(=O)c1ccccc1`, inactive: 1.61.
Consider `O=C(N[C@H](CO)[C@H](O)c1ccc([N+](=O)[O-])cc1)C(Cl)Cl`, for which the ATP level is inactive: -7.02.
Next, `CCC[C@@H]1C[C@@H](C(=O)N[C@@H]([C@H]2O[C@H](SC)[C@H](O)[C@@H](O)[C@H]2O)[C@H](C)Cl)N(C)C1`: inactive: -1.3; `CN(C)CCC=C1c2ccccc2COc2ccccc21`: inactive: -15.6.
Take `CC(C)[N+](C)(CCOC(=O)C1c2ccccc2Oc2ccccc21)C(C)C`: the ATP level was inactive: -0.813.
Under `CN1CCC[C@@H]1Cc1c[nH]c2ccc(CCS(=O)(=O)c3ccccc3)cc12` stands inactive: 0.709; under `Nc1ccccc1S(N)(=O)=O`, inactive: 0.118.
Next, `CC1=CC(=O)C(C(C)C)=CC1=O`: inactive: 1.72.
Under `OCc1cccnc1` stands inactive: -18.8; under `O=Cc1ccccc1O[C@@H]1O[C@H](CO)[C@@H](O)[C@H](O)[C@H]1O`, inactive: -2.31; under `O=C(O)c1cn(C2CC2)c2cc(N3CCNCC3)c(F)cc2c1=O`, inactive: -0.493.
As to `CCOc1nc2cccc(C(=O)OCc3oc(=O)oc3C)c2n1Cc1ccc(-c2ccccc2-c2noc(=O)[nH]2)cc1`, the ATP level is inactive: 1.94.
Take `Cn1c(=O)[nH]c2ncn(C)c2c1=O`: the ATP level is inactive: 1.16.
On to `C#CCN[C@@H]1CCc2ccccc21`, for which the ATP level was inactive: -0.458.
Under `Cc1cc(C(C)(C)C)c(O)c(C(C)(C)C)c1` stands inactive: -0.575.
Next, `COc1ccc2c(c1)OCC(Cc1ccc(OC)c(O)c1)C2=O` (centres undefined): inactive: -0.066; `C=CCSSSCC=C`: inactive: -0.00246.
In the case of `O=C(O)C1CC([C@@H]2CCCCN2)CN2CCCCC12` (some centres undefined), the ATP level is inactive: 1.72.
Next, `COc1cc(C(=O)NCc2ccc(OCCN(C)C)cc2)cc(OC)c1OC`: inactive: -10.9; `O=c1cc(CO)occ1O`: inactive: -2.23; `C[C@@H]1CC[C@H]2[C@](C)(CO)[C@@H](O)CC[C@]2(C)[C@@]12CC[C@@](CO)(CCO)O2`: inactive: -4.26.
Next, `CCC/C=C\C=C/C(=O)N[C@@H](CC(N)=O)C(=O)NC(CC(N)=O)C(=O)N[C@@H](C(=O)N[C@H](CCCN)C(=O)N[C@@H](C(=O)N[C@@H](C(=O)N[C@@H](C(=O)N[C@H](C(=O)N[C@@H](Cc1ccccc1)C(=O)N[C@H](CCCN)C(=O)NC(C(=O)N[C@H](C(=O)NC(C(=O)NCC(=O)N[C@@H](CC(C)C)C(=O)N[C@H](C)C(=O)NC(C(=O)O)C1CCC(O)C(Cl)C1)C1CCC(O)CC1)[C@H](C)O)C1CCC(O)CC1)[C@H](C)O)C1CCC(O)CC1)C1CCC(O)CC1)[C@H](C)O)C1CCC(O)CC1` (some centres undefined) [RAMOPLANIN [A2 shown; 2mM]] (X2-N[ξN][X3][dOrn][dT][X3][X3][aThr]F[dOrn][X4][aThr][X4]GL[dA][X5]-OH): inactive: -0.0656; `CC(C)c1c(O)c(-c2cc3c(c(C(C)C)c2O)CCC2C(C)(C)CCC[C@]32C)cc2c1CCC1C(C)(C)CCC[C@]21C` (some centres undefined): inactive: 0.939; `C1CCC(C(CC2CCCCN2)C2CCCCC2)CC1` (centres undefined): inactive: -29.5.
`CN1CC(=O)N2[C@H](c3ccc4c(c3)OCO4)c3[nH]c4ccccc4c3C[C@@H]2C1=O`: the ATP level is inactive: -3.47.
Under `CC1=C2C(=CO[C@H](C)[C@H]2C)C(=O)C(C(=O)O)=C1O` stands inactive: -0.641.
Next, `O=C1C=C(O)c2ccccc2C1=O`: inactive: -1.39.
Under `CC(C)NCC(O)COc1ccc(CCOCC2CC2)cc1` (centres undefined) stands inactive: 0.688; under `CC(=O)[C@@]1(O)CC[C@H]2[C@@H]3C[C@H](C)C4=CC(=O)C=C[C@]4(C)[C@@]3(F)[C@@H](O)C[C@@]21C`, inactive: 1.47.
Turning to `CCc1nc(N)nc(N)c1-c1ccc(Cl)cc1`, the ATP level was inactive: -13.9.
Turning to `C#CCCCCCCCCCCCC(O)CC(O)COC(C)=O.C=CCCCCCCCCCCCC(O)CC(O)COC(C)=O` (centres undefined), the ATP level was active: 5.4.
For the molecule `O=C1/C(=C/c2cccs2)CCC/C1=C\c1cccs1`, the ATP level is inactive: 0.758.
In the case of `C=CC(C1=CC(=O)C(OC)=CC1=O)c1ccccc1` (centres undefined), the ATP level was inactive: -0.751.
Under `Clc1ccc(C(Cn2ccnc2)OCc2ccsc2Cl)c(Cl)c1` (centres undefined) stands inactive: -0.193.
On to `C[C@](N)(Cc1ccc(O)c(O)c1)C(=O)O`, for which the ATP level is active: 3.47.
Under `CC[C@H]1C(=O)OC[C@@H]1Cc1cncn1C` stands inactive: -1.24.
Regarding `O=C(O)C(=O)O.[NH-][C@@H]1CCCC[C@H]1[NH-].[Pt+2]`, the ATP level was inactive: -0.483.
Under `COc1c(CC(=O)c2cc3c(cc2O)OC(C)(C)C(O)C3)ccc2c1C=CC(C)(C)O2` (centres undefined) stands inactive: -0.723.
Next, `CCOC(=O)COc1ccc2c(=O)cc(-c3ccccc3)oc2c1`: inactive: -0.0447.
On to `CC(N)CCCC(C)(C)O` (centres undefined), for which the ATP level was inactive: 0.245.
Under `CN1CCCN=C1/C=C/c1cccc(O)c1` stands inactive: -13.4; under `N#CCC(=O)NN`, inactive: -0.775.
Under `Oc1cccc(O)c1` stands inactive: -0.747; under `CC(=O)N(c1onc(C)c1C)S(=O)(=O)c1ccc(N)cc1`, inactive: 1.16; under `Cc1cc(O)cc(C)c1Cl`, inactive: -1.12.
Next, `C=C1CCC(C2CC(=O)OC2=O)C(=O)CCC2C1CC2(C)C` (centres undefined): inactive: 2; `COC1=CC(=O)c2ccccc2C1=O`: inactive: 0.877; `CC=CC1=C(C(=O)O)N2C(=O)[C@@H](NC(=O)[C@H](N)c3ccc(O)cc3)[C@H]2SC1`: inactive: 0.877.
